Test results published in PubChem BioAssay AID504327 (National Center for Advancing Translational Sciences (NCATS), 2011).
Among all 390,000 compounds or so, about 820 (0.21%) were called active. This list was built around the results that the source calls inconclusive (neither active nor inactive); the mix of calls is not that of the screen. Calls follow the shape of the dose curve; as a rule, active = well fitted inhibition curve with a large enough effect; inconclusive = small, poorly fitted or top-dose-only effect, or another doubt; inactive = no such curve, though single readings can be large or run the other way. Potencies of inconclusive entries are doubtful fits and often do not repeat.

By UniProt entry, the sequences of proteins in these tests, tags left out.
UniProt Q92830, whole entry, looked up: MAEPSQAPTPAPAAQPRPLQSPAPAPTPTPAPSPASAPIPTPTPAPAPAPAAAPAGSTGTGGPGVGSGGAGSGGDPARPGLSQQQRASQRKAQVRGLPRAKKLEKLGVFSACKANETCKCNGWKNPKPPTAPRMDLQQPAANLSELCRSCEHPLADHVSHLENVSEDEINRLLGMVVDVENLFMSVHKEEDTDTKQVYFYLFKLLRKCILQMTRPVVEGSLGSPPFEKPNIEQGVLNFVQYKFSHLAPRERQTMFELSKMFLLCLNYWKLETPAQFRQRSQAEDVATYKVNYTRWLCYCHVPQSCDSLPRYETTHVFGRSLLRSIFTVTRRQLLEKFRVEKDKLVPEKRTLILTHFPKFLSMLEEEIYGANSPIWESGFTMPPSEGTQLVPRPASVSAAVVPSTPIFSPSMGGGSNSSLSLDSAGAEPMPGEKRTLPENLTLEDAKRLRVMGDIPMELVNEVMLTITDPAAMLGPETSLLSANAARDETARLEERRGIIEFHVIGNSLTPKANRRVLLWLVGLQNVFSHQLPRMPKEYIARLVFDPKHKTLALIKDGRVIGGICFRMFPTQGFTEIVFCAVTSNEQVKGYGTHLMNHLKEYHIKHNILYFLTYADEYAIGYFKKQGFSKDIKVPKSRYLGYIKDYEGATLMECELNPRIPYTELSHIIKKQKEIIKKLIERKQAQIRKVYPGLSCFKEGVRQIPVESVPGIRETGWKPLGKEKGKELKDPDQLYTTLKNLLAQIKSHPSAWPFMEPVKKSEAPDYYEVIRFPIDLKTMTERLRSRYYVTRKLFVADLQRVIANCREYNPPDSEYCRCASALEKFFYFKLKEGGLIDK

The molecules below were run against Histone acetyltransferase KAT2A (Homo sapiens) (UniProt Q92830) (assay: qHTS Assay for Inhibitors of GCN5L2). Conditions: GCN5L2 HAT assay, ThioGlo1 CoA-SH fluorescence; series mostly up to 58.9 µM.
Method in brief: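 Compounds, pin-transferred from DMSO stocks, meet 20nM GCN5L2 for 15 min before the reaction begins with H3(1-25) peptide (75uM) and acetyl-CoA (70uM). Thiol-reactive ThioGlo1 reports CoA release over 20 min at room temperature.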
Potency is read from the fitted curve at half-maximal effect.

| Compound | Potency |
| --- | --- |
| COc1ccc(NC(=S)N2CCC(c3ccc(C)cc3)C2)cc1 (stereo not given) | inactive |
| Cc1ccc(-n2c(N)c(C(=O)N3CCOCC3)sc2=S)cc1 | inconclusive: 28.2 µM [inhibitor, partial curve, poor fit] |
| Cn1c(=O)c2c(-c3cccc(F)c3)c3c(nc2n(C)c1=O)-c1ccccc1C3O (stereo not given) | inconclusive: 0.794 µM [inhibitor, single point] |
| Cc1cccc(CCNC(=O)CCS(=O)(=O)c2ccc3nc(C)sc3c2)c1 | inconclusive: 0.794 µM [inhibitor, single point] |
| CCn1c(C)nc2cc(C(=O)NNC(=O)CCC3CCCCC3)ccc21 | inactive |
| COc1ccc(/C=C2\CCc3c2nc2ccccc2c3C(=O)O)cc1OC | inconclusive: 35.5 µM [inhibitor, single point] |
| Cc1ccc(C(=O)NCc2ccc3c(c2)OCO3)o1 | inconclusive: 3.16 µM [inhibitor, partial curve] |
| CCC(C(=O)NCCc1ccc(OC)c(OC)c1)n1nc(C)c2sc3ccccc3c2c1=O (stereo not given) | inactive |
| COc1ccccc1N1CCN(C(=O)c2cc3cc(F)ccc3[nH]2)CC1 | inactive |
| CCOc1ccc(CNc2nc3ccccc3n2C)cc1 | inconclusive: 5.01 µM [inhibitor, single point] |
| CCc1ccc2occ(CC(=O)Nc3c(C(=O)c4ccc(F)cc4)oc4ccccc34)c2c1 | inactive |
| CN1CCN(c2ncc3nc(-c4cccc(C#N)c4)c(=O)n(C)c3n2)CC1 | inconclusive: 28.2 µM [inhibitor, partial curve] |
| CNCCC=C1c2ccccc2C=Cc2ccccc21 | inconclusive: 8.91 µM [inhibitor, partial curve, poor fit] |
| COc1ccc(C(=O)N(CN2CCCC2=O)c2ccc(C)cc2)cc1 | inconclusive: 39.8 µM [inhibitor, single point] |
| CCn1c2ccccc2c2cc(CNCc3ccc(OC)cc3OC)ccc21 | inactive |
| CC(=O)c1sc2nc(SCC(=O)NCCc3ccccc3)[nH]c(=O)c2c1C | inconclusive: 0.398 µM [inhibitor, full curve, poor fit] |
| COc1ccc(OC)c(NC(=O)N2CCC3(CC2)Oc2ccccc2C(=O)N3Cc2ccccc2F)c1 | inactive |
| Cc1cc(NC(=O)C(C)Oc2ccc(C(C)(C)C)cc2)no1 (stereo not given) | inconclusive: 39.8 µM [inhibitor, single point] |
| N#Cc1c(Nc2cccc(F)c2)sc2c(O)cc(=O)[nH]c12 | inconclusive: 22.4 µM [inhibitor, single point] |
| CN(Cc1ccccc1)c1nc2c(S(=O)(=O)c3ccccc3)nnn2c2ccsc12 | inactive |

Not a retest: two of the compounds above.

| Compound | Potency |
| --- | --- |
| COc1ccccc1N1CCN(C(=O)c2cc3cc(F)ccc3[nH]2)CC1 | inactive |
| CCOc1ccc(CNc2nc3ccccc3n2C)cc1 | inconclusive: 5.01 µM [inhibitor, single point] |
